Results: the supplement of paper PMC7661543
The effect of the compound repeats well; differences between the knockouts mostly do not.

Test system: HCC-38
Assay: relative cell number vs DMSO control (72 h) (% of DMSO); higher = less growth inhibition (more cells)
Protocol: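 QMAP-Seq: a pool of 5 breast cancer cell lines (ZR-75-1, SKBR3, HCC-38, MDA-MB-231, BT-20), each carrying 12 doxycycline-inducible Cas9 sgRNA perturbations (11 knockouts plus non-targeting sgNT), was treated with compounds for 72 h at four 10-fold doses (10 nM-10 uM or 1 nM-1 uM range). Barcodes were amplified and sequenced, and cell number was interpolated from 293T spike-in standard curves. The result is expressed as % of the median of DMSO wells. Two biological replicates.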

COCC[n+]1c2c(n(Cc3cnccn3)c1C)C(=O)c1ccccc1C2=O [YM155]
Settings	relative cell number
sgRNA knockout: sgATF3, 1 nM	58.2
sgRNA knockout: sgATF3, 10 nM	24.92
sgRNA knockout: sgATF3, 100 nM	3.57
sgRNA knockout: sgATF3, 1000 nM	4.25
sgRNA knockout: sgATF4, 1 nM	48.1
sgRNA knockout: sgATF4, 10 nM	25.5
sgRNA knockout: sgATF4, 100 nM	4.161
sgRNA knockout: sgATF4, 1000 nM	4.82
sgRNA knockout: sgATF6, 1 nM	57.48
sgRNA knockout: sgATF6, 10 nM	22.6
sgRNA knockout: sgATF6, 100 nM	3.07
sgRNA knockout: sgATF6, 1000 nM	6.2
sgRNA knockout: sgATG7, 1 nM	53.9
sgRNA knockout: sgATG7, 10 nM	22.5
sgRNA knockout: sgATG7, 100 nM	3.37
sgRNA knockout: sgATG7, 1000 nM	4.45
sgRNA knockout: sgERN1, 1 nM	58.1
sgRNA knockout: sgERN1, 10 nM	25.7
sgRNA knockout: sgERN1, 100 nM	4.06
sgRNA knockout: sgERN1, 1000 nM	4.59
sgRNA knockout: sgHSF1, 1 nM	73.1
sgRNA knockout: sgHSF1, 10 nM	29.1
sgRNA knockout: sgHSF1, 100 nM	4.53
sgRNA knockout: sgHSF1, 1000 nM	5.55
sgRNA knockout: sgHSF2, 1 nM	55.1
sgRNA knockout: sgHSF2, 10 nM	25.5
sgRNA knockout: sgHSF2, 100 nM	5.15
sgRNA knockout: sgHSF2, 1000 nM	4.9
sgRNA knockout: sgKEAP1, 1 nM	70
sgRNA knockout: sgKEAP1, 10 nM	32.4
sgRNA knockout: sgKEAP1, 100 nM	6.54
sgRNA knockout: sgKEAP1, 1000 nM	5.47
sgRNA knockout: sgNFE2L2, 1 nM	48.4
sgRNA knockout: sgNFE2L2, 10 nM	20.6
sgRNA knockout: sgNFE2L2, 100 nM	3.9
sgRNA knockout: sgNFE2L2, 1000 nM	4.58
sgRNA knockout: sgSLC35F2, 1 nM	96.8
sgRNA knockout: sgSLC35F2, 10 nM	59
sgRNA knockout: sgSLC35F2, 100 nM	16.2
sgRNA knockout: sgSLC35F2, 1000 nM	5.18
sgRNA knockout: sgXBP1, 1 nM	51.7
sgRNA knockout: sgXBP1, 10 nM	21.5
sgRNA knockout: sgXBP1, 100 nM	4.37
sgRNA knockout: sgXBP1, 1000 nM	5.44

FC(F)c1nc2ccccc2n1-c1nc(N2CCOCC2)nc(N2CCOCC2)n1 [ZSTK474]
Settings	relative cell number
sgRNA knockout: sgATF3, 10 nM	92.3
sgRNA knockout: sgATF3, 100 nM	91.9
sgRNA knockout: sgATF3, 1000 nM	80
sgRNA knockout: sgATF3, 10000 nM	55.6
sgRNA knockout: sgATF4, 10 nM	95.5
sgRNA knockout: sgATF4, 100 nM	91.62
sgRNA knockout: sgATF4, 1000 nM	75.7
sgRNA knockout: sgATF4, 10000 nM	58.6
sgRNA knockout: sgATF6, 10 nM	98
sgRNA knockout: sgATF6, 100 nM	104
sgRNA knockout: sgATF6, 1000 nM	67.2
sgRNA knockout: sgATF6, 10000 nM	57.9
sgRNA knockout: sgATG7, 10 nM	100
sgRNA knockout: sgATG7, 100 nM	101.8
sgRNA knockout: sgATG7, 1000 nM	77.99
sgRNA knockout: sgATG7, 10000 nM	56.8
sgRNA knockout: sgERN1, 10 nM	89.4
sgRNA knockout: sgERN1, 100 nM	93.8
sgRNA knockout: sgERN1, 1000 nM	86.2
sgRNA knockout: sgERN1, 10000 nM	67.8
sgRNA knockout: sgHSF1, 10 nM	77.4
sgRNA knockout: sgHSF1, 100 nM	98.6
sgRNA knockout: sgHSF1, 1000 nM	79.7
sgRNA knockout: sgHSF1, 10000 nM	67.4
sgRNA knockout: sgHSF2, 10 nM	93.3
sgRNA knockout: sgHSF2, 100 nM	113
sgRNA knockout: sgHSF2, 1000 nM	71
sgRNA knockout: sgHSF2, 10000 nM	60.5
sgRNA knockout: sgKEAP1, 10 nM	84.2
sgRNA knockout: sgKEAP1, 100 nM	107
sgRNA knockout: sgKEAP1, 1000 nM	68.5
sgRNA knockout: sgKEAP1, 10000 nM	69.4
sgRNA knockout: sgNFE2L2, 10 nM	101
sgRNA knockout: sgNFE2L2, 100 nM	96
sgRNA knockout: sgNFE2L2, 1000 nM	75.6
sgRNA knockout: sgNFE2L2, 10000 nM	56.7
sgRNA knockout: sgSLC35F2, 10 nM	101
sgRNA knockout: sgSLC35F2, 100 nM	97.3
sgRNA knockout: sgSLC35F2, 1000 nM	80.7
sgRNA knockout: sgSLC35F2, 10000 nM	57.8
sgRNA knockout: sgXBP1, 10 nM	95
sgRNA knockout: sgXBP1, 100 nM	99.9
sgRNA knockout: sgXBP1, 1000 nM	78.8
sgRNA knockout: sgXBP1, 10000 nM	59.8

O=c1ncccn1[C@@H]1O[C@H](CO)[C@@H](O)[C@H]1O [Zebularine]
Settings	relative cell number
sgRNA knockout: sgATF3, 10 nM	112
sgRNA knockout: sgATF3, 100 nM	107
sgRNA knockout: sgATF3, 1000 nM	100.5
sgRNA knockout: sgATF3, 10000 nM	115
sgRNA knockout: sgATF4, 10 nM	117
sgRNA knockout: sgATF4, 100 nM	96.2
sgRNA knockout: sgATF4, 1000 nM	104
sgRNA knockout: sgATF4, 10000 nM	107
sgRNA knockout: sgATF6, 10 nM	116
sgRNA knockout: sgATF6, 100 nM	99.6
sgRNA knockout: sgATF6, 1000 nM	107
sgRNA knockout: sgATF6, 10000 nM	95.5
sgRNA knockout: sgATG7, 10 nM	113
sgRNA knockout: sgATG7, 100 nM	101
sgRNA knockout: sgATG7, 1000 nM	93.5
sgRNA knockout: sgATG7, 10000 nM	105
sgRNA knockout: sgERN1, 10 nM	107
sgRNA knockout: sgERN1, 100 nM	106
sgRNA knockout: sgERN1, 1000 nM	97.2
sgRNA knockout: sgERN1, 10000 nM	108
sgRNA knockout: sgHSF1, 10 nM	97.3
sgRNA knockout: sgHSF1, 100 nM	97.2
sgRNA knockout: sgHSF1, 1000 nM	85.1
sgRNA knockout: sgHSF1, 10000 nM	97.8
sgRNA knockout: sgHSF2, 10 nM	116
sgRNA knockout: sgHSF2, 100 nM	99.2
sgRNA knockout: sgHSF2, 1000 nM	116
sgRNA knockout: sgHSF2, 10000 nM	114.8
sgRNA knockout: sgKEAP1, 10 nM	108
sgRNA knockout: sgKEAP1, 100 nM	101
sgRNA knockout: sgKEAP1, 1000 nM	106
sgRNA knockout: sgKEAP1, 10000 nM	108
sgRNA knockout: sgNFE2L2, 10 nM	110
sgRNA knockout: sgNFE2L2, 100 nM	99.4
sgRNA knockout: sgNFE2L2, 1000 nM	108
sgRNA knockout: sgNFE2L2, 10000 nM	113
sgRNA knockout: sgSLC35F2, 10 nM	117
sgRNA knockout: sgSLC35F2, 100 nM	106
sgRNA knockout: sgSLC35F2, 1000 nM	99.99
sgRNA knockout: sgSLC35F2, 10000 nM	105
sgRNA knockout: sgXBP1, 10 nM	115
sgRNA knockout: sgXBP1, 100 nM	101
sgRNA knockout: sgXBP1, 1000 nM	104
sgRNA knockout: sgXBP1, 10000 nM	115
